We go through 14 targets from the supplement of paper PMC11006884.

Protein sequences, listed by entry. Tags and fused reporters are not part of them. Lines headed by an entry give the natural chain unless they say otherwise; changes in a name come on top.
UniProt Q8TF05: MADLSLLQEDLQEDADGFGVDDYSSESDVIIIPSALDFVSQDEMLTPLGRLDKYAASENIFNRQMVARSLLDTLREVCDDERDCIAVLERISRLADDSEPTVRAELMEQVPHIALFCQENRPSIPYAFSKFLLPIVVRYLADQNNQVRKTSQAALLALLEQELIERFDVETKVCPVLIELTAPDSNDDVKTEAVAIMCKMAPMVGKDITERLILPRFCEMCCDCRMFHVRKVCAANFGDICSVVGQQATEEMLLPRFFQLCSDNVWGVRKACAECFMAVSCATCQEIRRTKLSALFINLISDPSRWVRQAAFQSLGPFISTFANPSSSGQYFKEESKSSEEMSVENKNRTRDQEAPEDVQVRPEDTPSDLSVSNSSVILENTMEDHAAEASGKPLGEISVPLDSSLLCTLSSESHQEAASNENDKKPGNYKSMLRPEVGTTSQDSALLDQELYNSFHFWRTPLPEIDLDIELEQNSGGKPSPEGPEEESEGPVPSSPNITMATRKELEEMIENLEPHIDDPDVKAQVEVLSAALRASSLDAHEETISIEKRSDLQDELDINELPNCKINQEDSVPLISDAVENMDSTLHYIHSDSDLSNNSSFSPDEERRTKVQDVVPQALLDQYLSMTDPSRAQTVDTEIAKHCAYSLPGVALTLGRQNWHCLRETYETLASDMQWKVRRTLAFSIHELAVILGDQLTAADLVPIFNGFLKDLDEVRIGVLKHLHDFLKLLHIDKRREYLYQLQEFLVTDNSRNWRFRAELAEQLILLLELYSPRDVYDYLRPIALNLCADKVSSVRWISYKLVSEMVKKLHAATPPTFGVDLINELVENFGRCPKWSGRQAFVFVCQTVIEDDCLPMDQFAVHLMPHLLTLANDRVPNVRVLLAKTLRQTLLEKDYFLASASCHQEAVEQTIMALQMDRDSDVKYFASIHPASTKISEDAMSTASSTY
UniProt Q8WYQ9: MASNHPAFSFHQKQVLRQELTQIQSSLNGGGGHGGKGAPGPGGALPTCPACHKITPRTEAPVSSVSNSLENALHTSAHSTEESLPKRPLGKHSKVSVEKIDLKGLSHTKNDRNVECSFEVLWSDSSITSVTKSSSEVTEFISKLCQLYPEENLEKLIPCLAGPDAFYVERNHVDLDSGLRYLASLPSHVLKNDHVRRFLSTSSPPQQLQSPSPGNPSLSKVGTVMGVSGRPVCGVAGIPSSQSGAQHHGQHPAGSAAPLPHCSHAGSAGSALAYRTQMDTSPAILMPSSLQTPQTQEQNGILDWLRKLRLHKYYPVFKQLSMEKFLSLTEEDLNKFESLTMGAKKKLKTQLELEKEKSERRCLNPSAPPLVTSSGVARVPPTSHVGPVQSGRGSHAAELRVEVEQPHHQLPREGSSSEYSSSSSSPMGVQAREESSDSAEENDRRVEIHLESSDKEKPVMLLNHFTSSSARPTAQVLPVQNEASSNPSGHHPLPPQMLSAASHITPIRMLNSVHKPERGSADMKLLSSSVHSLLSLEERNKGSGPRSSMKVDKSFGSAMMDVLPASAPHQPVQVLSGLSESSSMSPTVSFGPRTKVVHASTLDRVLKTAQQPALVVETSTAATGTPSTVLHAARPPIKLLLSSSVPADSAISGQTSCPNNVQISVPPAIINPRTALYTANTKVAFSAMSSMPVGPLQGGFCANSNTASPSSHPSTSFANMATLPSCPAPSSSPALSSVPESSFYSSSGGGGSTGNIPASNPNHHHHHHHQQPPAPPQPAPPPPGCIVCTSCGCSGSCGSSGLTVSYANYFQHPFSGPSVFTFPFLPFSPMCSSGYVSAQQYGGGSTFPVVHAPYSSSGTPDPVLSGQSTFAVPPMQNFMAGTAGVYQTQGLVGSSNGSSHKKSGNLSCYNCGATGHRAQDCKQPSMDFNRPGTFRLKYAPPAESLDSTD
UniProt Q8NFC6: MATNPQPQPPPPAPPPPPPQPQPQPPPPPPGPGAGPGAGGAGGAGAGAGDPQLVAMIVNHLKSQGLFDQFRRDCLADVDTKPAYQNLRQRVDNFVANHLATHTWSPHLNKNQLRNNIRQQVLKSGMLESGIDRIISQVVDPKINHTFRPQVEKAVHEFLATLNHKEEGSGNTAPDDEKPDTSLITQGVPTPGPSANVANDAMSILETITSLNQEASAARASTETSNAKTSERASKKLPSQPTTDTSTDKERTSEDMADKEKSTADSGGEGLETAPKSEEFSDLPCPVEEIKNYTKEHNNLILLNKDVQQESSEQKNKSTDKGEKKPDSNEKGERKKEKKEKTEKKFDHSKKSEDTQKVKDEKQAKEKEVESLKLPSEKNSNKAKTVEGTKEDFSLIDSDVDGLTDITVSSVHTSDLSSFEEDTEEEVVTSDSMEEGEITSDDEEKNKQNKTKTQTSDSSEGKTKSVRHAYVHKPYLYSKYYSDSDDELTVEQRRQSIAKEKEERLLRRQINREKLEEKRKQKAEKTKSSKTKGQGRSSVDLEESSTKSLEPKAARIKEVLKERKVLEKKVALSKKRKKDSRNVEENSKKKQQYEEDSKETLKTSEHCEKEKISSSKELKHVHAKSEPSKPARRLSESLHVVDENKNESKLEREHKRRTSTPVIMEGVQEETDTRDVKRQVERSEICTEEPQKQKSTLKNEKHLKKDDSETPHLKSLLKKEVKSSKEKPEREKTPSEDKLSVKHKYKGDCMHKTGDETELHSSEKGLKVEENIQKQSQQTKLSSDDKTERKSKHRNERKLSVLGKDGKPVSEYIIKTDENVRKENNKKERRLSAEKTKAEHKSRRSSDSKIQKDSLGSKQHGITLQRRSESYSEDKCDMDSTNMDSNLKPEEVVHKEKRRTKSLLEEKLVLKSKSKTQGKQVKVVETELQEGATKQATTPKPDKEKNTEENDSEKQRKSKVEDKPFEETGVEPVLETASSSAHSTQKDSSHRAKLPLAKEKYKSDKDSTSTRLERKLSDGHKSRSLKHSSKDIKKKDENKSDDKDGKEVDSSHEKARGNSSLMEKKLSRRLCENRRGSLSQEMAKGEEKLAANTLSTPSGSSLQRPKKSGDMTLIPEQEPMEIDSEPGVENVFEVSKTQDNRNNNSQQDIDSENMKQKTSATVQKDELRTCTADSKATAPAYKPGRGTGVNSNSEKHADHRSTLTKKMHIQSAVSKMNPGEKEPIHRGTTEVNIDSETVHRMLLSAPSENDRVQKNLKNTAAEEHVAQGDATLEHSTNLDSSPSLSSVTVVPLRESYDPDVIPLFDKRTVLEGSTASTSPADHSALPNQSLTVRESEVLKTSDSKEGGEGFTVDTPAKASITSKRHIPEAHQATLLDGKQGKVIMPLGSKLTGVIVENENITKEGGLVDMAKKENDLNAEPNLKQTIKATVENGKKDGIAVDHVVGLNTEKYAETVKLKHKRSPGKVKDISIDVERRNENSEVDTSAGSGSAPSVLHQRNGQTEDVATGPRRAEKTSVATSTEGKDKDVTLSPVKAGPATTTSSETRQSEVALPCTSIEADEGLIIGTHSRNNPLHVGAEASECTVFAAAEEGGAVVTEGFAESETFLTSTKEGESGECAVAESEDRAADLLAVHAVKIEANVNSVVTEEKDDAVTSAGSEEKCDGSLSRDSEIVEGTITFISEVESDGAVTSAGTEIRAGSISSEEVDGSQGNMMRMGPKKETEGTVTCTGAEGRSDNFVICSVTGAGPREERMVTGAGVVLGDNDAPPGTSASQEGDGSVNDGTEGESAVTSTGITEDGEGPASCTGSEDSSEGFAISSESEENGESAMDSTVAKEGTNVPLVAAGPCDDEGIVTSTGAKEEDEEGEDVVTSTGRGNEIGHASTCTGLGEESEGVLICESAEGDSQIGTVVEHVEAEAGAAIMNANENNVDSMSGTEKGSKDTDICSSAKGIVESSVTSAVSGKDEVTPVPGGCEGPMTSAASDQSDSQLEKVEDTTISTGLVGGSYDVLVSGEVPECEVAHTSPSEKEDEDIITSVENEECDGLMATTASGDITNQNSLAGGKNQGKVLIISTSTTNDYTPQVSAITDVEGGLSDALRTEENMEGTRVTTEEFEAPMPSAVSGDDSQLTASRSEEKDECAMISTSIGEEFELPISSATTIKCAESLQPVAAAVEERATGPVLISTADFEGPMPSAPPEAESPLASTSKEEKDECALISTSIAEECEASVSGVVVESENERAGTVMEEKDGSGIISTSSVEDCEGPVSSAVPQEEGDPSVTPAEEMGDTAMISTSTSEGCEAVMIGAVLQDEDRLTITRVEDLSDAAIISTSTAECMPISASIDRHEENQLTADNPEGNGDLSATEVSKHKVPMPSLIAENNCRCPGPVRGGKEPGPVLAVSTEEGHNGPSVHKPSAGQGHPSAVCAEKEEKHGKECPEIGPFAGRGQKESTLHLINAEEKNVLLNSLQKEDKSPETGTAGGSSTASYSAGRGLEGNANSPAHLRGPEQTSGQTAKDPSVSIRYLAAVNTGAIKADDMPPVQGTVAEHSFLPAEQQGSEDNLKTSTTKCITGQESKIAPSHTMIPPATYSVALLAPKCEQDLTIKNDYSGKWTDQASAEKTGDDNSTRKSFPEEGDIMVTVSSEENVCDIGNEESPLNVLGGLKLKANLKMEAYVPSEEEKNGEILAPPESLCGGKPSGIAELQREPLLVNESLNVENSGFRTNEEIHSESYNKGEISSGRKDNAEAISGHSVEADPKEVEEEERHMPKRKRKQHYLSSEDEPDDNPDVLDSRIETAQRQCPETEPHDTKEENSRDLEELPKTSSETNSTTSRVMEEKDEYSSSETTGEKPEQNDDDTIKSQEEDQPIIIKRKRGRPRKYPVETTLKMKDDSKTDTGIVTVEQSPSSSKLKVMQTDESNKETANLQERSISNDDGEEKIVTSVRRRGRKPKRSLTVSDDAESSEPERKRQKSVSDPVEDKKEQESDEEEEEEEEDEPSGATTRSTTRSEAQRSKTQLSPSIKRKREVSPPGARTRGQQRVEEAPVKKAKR
UniProt Q8N5Z5: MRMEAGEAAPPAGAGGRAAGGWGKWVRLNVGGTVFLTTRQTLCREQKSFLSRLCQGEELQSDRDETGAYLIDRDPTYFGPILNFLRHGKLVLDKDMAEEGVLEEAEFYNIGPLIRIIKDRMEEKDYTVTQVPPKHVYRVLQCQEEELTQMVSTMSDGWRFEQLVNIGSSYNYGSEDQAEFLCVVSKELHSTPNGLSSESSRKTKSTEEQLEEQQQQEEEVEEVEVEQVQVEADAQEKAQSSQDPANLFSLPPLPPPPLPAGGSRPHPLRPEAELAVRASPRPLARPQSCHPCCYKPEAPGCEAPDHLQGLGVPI
UniProt Q8N4N3: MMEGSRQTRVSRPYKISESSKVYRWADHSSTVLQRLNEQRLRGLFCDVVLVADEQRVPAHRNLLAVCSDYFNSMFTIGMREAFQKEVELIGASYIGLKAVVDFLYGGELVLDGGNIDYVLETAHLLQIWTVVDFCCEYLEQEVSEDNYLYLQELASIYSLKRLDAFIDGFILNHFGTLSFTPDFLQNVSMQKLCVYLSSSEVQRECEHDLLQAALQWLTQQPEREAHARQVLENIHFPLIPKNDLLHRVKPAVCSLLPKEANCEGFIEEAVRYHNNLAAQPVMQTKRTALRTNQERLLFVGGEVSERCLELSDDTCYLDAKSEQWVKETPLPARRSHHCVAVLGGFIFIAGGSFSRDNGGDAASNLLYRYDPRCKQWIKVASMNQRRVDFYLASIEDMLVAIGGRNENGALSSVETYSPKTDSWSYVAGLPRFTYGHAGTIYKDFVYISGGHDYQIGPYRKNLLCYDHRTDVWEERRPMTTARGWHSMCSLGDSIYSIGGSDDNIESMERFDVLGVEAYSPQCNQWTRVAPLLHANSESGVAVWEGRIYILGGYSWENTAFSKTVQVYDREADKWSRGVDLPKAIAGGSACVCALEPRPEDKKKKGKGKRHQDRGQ
UniProt Q8NBU5: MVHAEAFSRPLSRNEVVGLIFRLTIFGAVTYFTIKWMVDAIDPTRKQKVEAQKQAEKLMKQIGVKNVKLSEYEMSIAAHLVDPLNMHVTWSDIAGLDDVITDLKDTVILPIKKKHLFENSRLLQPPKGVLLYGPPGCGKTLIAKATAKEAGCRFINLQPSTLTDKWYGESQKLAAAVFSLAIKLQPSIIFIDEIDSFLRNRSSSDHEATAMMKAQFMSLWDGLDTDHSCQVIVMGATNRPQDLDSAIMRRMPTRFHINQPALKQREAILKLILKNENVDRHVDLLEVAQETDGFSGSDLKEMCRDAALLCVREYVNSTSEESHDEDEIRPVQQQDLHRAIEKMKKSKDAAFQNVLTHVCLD

Shown are results outside the selection of targets with a hit, which stands elsewhere. Single values of this set are uncertain. The entries are a selection whose mix differs from that of the whole data set.

Compound in this test: COC(=O)/C=C/c1ccccc1 [methyl cinnamate]
Put plainly: log2 ratio of iodoacetamide-alkyne labeling of the cysteine site, DMSO over compound (competition); higher = stronger covalent engagement of the cysteine by the compound, active = 1 or more. The following applies: 500 µM; treatment time 1 h; system: HEK293T cell lysate. Summed up: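 Reporter intensities give each cysteine's log2 competition ratio as the mean of control channels over the mean of compound channels. The samples were HEK293T lysate (2 mg/mL) given vehicle or electrophile (500 µM, 1 h, ambient temperature), then iodoacetamide alkyne (1 h), followed by click coupling to sCIP-TMT reagents, pooling, trypsin digestion overnight at 37 °C, streptavidin enrichment, acid elution, Orbitrap Eclipse LC-MS/MS with FAIMS and FragPipe quantification. Duplicate channels and three replicates were run, and cysteines quantified in only one replicate were discarded.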
As to PPP4R1 C566 (UniProt Q8TF05), the “log2 ratio of iodoacetamide-alkyne labeling” value (“log2 ratio” below) is inactive: 0.292.
As to UniProt Q8WYQ9_C362, the “log2 ratio” value was inactive: 0.191.
On to UniProt Q8NFC6_C1554, for which the “log2 ratio” value was inactive: -0.0064.
The figure for PPP4R1 C261 (UniProt Q8TF05) is inactive: 0.165.
In the case of PAF1 C36 (UniProt Q8N7H5), the “log2 ratio” value was inactive: 0.0746.
With UniProt Q8N1I0_C1723 the figure was inactive: 0.543.
With UniProt Q8N5Z5_C61 the figure was inactive: -0.0529; with KLHL36 C263 (UniProt Q8N4N3), inactive: -0.0277; with DDX51 C338 (UniProt Q8N8A6), inactive: 0.132.
The figure for GTF3C2 C608 (UniProt Q8WUA4) is inactive: 0.15; for NEK9 C25 (UniProt Q8TD19) it is inactive: 0.406.
Consider UniProt Q8NBU5_C359, for which the “log2 ratio” value was inactive: 0.141.
The figure for PHIP C130 (UniProt Q8WWQ0) is inactive: 0.211; for ZNF280C C734 (UniProt Q8ND82) it is inactive: 0.252.
